This is an account of results in article PMC6506760.

Chains of the proteins cited; added tags and fusions are not shown.
UniProt P12520: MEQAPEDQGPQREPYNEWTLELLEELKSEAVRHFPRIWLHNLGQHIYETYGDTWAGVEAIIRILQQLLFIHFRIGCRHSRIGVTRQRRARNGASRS
UniProt Q9UHI6: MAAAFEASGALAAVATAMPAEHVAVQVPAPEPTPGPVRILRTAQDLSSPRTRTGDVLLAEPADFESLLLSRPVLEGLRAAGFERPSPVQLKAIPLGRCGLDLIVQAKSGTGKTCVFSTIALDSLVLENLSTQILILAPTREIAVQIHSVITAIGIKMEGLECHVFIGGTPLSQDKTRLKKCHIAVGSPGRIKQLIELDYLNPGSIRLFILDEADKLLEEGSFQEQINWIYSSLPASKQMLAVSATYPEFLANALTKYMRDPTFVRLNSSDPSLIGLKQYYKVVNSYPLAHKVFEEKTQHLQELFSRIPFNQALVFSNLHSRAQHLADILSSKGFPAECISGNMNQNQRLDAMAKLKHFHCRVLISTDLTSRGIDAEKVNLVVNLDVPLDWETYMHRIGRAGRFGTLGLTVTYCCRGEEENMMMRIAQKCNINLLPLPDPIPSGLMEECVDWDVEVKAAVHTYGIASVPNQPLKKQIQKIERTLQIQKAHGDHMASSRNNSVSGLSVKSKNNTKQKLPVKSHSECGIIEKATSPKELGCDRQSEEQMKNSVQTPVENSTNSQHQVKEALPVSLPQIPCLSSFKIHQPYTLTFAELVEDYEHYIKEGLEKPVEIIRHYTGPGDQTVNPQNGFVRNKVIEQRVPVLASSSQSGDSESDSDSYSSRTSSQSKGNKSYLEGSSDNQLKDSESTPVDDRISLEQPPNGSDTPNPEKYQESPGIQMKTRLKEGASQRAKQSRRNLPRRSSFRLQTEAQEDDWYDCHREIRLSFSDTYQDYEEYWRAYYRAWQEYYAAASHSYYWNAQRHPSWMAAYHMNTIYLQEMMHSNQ
UniProt P57678: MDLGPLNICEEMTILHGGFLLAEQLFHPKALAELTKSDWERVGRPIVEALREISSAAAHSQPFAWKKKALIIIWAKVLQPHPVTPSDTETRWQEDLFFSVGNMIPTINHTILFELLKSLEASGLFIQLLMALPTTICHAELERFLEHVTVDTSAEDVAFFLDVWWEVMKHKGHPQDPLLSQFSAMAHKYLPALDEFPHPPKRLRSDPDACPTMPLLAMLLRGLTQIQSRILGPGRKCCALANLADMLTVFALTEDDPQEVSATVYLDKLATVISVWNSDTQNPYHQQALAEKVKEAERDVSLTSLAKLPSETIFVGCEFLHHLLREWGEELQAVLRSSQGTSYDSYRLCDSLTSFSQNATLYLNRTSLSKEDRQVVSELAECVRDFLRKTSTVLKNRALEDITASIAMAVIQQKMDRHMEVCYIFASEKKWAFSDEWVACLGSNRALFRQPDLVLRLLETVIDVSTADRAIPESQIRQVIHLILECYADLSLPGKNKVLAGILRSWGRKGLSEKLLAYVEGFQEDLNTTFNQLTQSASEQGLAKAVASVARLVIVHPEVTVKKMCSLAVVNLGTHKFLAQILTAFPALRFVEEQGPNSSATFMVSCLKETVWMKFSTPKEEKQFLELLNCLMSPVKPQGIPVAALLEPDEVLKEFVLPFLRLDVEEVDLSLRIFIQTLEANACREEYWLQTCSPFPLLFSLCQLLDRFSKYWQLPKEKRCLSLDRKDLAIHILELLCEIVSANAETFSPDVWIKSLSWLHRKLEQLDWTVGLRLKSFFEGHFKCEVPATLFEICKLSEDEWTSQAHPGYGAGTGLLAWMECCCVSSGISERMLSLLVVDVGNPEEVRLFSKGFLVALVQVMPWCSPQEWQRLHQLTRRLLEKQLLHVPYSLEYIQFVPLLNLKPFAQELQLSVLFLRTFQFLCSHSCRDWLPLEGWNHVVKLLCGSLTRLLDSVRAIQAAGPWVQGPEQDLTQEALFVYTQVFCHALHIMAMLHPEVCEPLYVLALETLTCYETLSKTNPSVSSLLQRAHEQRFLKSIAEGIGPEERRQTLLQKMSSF
UniProt Q8NI77: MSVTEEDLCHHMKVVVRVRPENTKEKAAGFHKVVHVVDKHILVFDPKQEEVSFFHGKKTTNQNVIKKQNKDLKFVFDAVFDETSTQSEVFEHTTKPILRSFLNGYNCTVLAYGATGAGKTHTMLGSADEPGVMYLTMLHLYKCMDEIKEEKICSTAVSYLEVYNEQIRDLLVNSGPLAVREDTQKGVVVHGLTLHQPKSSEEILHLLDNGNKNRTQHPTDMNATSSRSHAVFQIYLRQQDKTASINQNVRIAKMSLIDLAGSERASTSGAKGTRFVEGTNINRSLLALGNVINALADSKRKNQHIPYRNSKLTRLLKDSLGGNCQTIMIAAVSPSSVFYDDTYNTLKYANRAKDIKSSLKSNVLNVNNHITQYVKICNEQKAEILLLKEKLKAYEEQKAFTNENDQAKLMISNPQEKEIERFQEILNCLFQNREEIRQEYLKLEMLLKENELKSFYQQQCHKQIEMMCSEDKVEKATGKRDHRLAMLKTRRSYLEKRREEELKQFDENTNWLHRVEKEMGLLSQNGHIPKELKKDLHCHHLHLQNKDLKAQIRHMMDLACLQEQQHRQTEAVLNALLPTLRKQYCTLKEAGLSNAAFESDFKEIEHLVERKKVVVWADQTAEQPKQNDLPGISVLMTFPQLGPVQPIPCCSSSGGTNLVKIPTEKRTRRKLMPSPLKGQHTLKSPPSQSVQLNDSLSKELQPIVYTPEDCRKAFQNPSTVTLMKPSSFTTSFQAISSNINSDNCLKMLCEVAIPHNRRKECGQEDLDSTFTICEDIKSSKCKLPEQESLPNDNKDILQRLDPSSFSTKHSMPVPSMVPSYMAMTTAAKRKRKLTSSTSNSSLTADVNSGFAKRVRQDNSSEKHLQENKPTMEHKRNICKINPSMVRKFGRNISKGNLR
UniProt P52701: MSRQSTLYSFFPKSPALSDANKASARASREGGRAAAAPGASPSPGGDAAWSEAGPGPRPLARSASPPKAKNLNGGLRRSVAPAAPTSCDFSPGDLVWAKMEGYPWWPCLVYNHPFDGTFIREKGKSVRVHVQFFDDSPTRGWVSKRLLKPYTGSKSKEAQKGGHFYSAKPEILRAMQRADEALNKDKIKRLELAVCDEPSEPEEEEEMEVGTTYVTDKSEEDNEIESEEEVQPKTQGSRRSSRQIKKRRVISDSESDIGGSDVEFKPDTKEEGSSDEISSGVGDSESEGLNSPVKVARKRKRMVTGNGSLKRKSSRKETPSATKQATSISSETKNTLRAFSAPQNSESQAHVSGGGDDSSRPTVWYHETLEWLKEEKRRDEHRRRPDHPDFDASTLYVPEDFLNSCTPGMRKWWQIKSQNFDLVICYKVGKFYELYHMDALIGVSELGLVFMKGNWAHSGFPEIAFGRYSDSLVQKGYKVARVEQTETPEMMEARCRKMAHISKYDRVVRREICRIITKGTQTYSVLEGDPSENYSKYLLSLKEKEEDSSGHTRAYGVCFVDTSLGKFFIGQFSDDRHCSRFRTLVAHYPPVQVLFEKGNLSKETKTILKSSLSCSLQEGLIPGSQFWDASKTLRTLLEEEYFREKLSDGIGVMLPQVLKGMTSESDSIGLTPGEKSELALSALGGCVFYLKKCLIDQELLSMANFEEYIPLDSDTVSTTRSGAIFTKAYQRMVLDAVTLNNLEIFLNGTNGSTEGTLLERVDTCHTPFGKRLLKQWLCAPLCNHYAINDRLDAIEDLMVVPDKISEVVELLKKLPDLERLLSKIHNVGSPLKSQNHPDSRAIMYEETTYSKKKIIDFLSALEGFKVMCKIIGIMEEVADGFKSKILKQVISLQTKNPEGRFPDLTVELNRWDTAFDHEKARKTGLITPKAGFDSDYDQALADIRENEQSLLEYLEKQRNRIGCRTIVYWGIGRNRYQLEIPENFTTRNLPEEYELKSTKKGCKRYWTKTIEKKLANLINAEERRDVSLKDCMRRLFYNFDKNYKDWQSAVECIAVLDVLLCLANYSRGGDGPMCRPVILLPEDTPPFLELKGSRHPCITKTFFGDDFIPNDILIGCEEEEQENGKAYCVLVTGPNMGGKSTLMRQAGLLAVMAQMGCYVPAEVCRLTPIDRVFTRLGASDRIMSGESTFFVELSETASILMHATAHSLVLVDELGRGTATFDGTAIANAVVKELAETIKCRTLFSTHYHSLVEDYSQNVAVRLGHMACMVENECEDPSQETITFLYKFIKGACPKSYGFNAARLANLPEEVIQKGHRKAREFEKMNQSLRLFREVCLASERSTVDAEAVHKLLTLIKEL
UniProt Q16637: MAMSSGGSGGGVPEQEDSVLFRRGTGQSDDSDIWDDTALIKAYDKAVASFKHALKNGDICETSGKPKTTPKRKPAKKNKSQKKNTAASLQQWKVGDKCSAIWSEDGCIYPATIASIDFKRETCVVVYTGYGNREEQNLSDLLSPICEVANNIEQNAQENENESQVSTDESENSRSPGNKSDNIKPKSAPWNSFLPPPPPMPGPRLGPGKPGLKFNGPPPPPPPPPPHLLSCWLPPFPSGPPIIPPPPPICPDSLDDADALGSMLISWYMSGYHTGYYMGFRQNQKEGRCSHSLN
UniProt Q14586: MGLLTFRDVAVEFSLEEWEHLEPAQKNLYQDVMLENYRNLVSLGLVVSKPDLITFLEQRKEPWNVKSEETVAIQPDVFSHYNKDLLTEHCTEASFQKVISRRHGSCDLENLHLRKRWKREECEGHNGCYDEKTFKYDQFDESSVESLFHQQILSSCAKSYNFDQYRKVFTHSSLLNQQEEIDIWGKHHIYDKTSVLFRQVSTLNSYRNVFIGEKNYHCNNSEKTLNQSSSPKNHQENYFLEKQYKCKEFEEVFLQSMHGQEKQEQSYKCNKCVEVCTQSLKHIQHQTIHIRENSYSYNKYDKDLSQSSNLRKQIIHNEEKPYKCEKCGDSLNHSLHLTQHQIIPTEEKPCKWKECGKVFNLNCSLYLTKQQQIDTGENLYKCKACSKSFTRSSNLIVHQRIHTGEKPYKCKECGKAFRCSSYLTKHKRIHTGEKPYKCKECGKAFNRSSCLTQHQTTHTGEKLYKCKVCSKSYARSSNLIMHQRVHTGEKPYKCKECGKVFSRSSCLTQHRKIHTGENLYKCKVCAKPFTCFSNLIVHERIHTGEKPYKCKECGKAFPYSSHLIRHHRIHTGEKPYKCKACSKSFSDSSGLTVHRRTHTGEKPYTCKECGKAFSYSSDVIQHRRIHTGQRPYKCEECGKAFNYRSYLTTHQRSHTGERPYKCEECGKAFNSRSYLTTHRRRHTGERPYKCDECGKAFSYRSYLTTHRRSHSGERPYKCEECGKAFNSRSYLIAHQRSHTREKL

Sequences and labels used below:
B1: ZNF574 (protein, UniProt Q6ZN55 1-896)
chain: MTEESEETVLYIEHRYVCSECNQLYGSLEEVLMHQNSHVPQQHFELVGVADPGVTVATDTASGTGLYQTLVQESQYQCLECGQLLMSPSQLLEHQELHLKMMAPQEAVPAEPSPKAPPLSSSTIHYECVDCKALFASQELWLNHRQTHLRATPTKAPAPVVLGSPVVLGPPVGQARVAVEHSYRKAEEGGEGATVPSAAATTTEVVTEVELLLYKCSECSQLFQLPADFLEHQATHFPAPVPESQEPALQQEVQASSPAEVPVSQPDPLPASDHSYELRNGEAIGRDRRGRRARRNNSGEAGGAATQELFCSACDQLFLSPHQLQQHLRSHREGVFKCPLCSRVFPSPSSLDQHLGDHSSESHFLCVDCGLAFGTEALLLAHRRAHTPNPLHSCPCGKTFVNLTKFLYHRRTHGVGGVPLPTTPVPPEEPVIGFPEPAPAETGEPEAPEPPVSEETSAGPAAPGTYRCLLCSREFGKALQLTRHQRFVHRLERRHKCSICGKMFKKKSHVRNHLRTHTGERPFPCPDCSKPFNSPANLARHRLTHTGERPYRCGDCGKAFTQSSTLRQHRLVHAQHFPYRCQECGVRFHRPYRLLMHRYHHTGEYPYKCRECPRSFLLRRLLEVHQLVVHAGRQPHRCPSCGAAFPSSLRLREHRCAAAAAQAPRRFECGTCGKKVGSAARLQAHEAAHAAAGPGEVLAKEPPAPRAPRATRAPVASPAALGSTATASPAAPARRRGLECSECKKLFSTETSLQVHRRIHTGERPYPCPDCGKAFRQSTHLKDHRRLHTGERPFACEVCGKAFAISMRLAEHRRIHTGERPYSCPDCGKSYRSFSNLWKHRKTHQQQHQAAVRQQLAEAEAAVGLAVMETAVEALPLVEAIEIYPLAEAEGVQISG
B2: BBX (protein, UniProt Q8WY36 1-941)
chain: MKGSNRNKDHSAEGEGVGKRPKRKCLQWHPLLAKKLLDFSEEEEEEDEEEDIDKVQLLGADGLEQDVGETEDDESPEQRARRPMNAFLLFCKRHRSLVRQEHPRLDNRGATKILADWWAVLDPKEKQKYTDMAKEYKDAFMKANPGYKWCPTTNKPVKSPTPTVNPRKKLWAFPSDSSRDLPSPKKAKTEEMPQLNFGMADPTQMGGLSMLLLAGEHALGTPEVSSGTCRPDVSESPELRQKSPLFQFAEISSSTSHSDASTKQCQTSALFQFAEISSNTSQLGGAEPVKRCGKSALFQLAEMCLASEGMKMEESKLIKAKESDGGRIKELEKGKEEKEIKMEKTDETRLQKEAEFEKSAKENLRDSKELRNFEALQIDDIMAIKMEDPKEIRKEELEEDHKCSHFPDFSYSASSKIIISDVPSRKDHMCHPHGIMIIEDPAALNKPEKLKKKKKKSKMDRHGNDKSTPKKTCKKRQSSESDIESVIYTIEAVAKGDWGIEKLGDTPRKKVRTSSSGKGSILDAKPPKKKVKSREKKMSKEKSSDTTKESRPPDFISISASKNISGETPEGIKAEPLTPMEDALPPSLSGQAKPEDSDCHRKIETCGSRKSERSCKGALYKTLVSEGMLTSLRANVDRGKRSSGKGNSSDHEGCWNEESWTFSQSGTSGSKKFKKTKPKEDCLLGSAKLDEEFEKKFNSLPQYSPVTFDRKCVPVPRKKKKTGNVSSEPTKTSKGPFQSQKKNLFHKIVSKYKHKKEKPNVPEKGSGDKWSNKQLFLDAIHPTEAIFSEDRNTMEPVHKVKNIPSIFNTPEPTTTQEPLVGSQKRKARKTKITHLVRTADGRVSPAGGTLDDKPKEQLQRSLPKATETDCNDKCSHNTEVGETRSSTPEMPAVSAFFSLAALAEVAAMENVHRGQRSTPLTHDGQPKEMPQAPVLISCADQ
B3: MBD1 (protein, UniProt Q9UIS9 1-605)
chain: MAEDWLDCPALGPGWKRREVFRKSGATCGRSDTYYQSPTGDRIRSKVELTRYLGPACDLTLFDFKQGILCYPAPKAHPVAVASKKRKKPSRPAKTRKRQVGPQSGEVRKEAPRDETKADTDTAPASFPAPGCCENCGISFSGDGTQRQRLKTLCKDCRAQRIAFNREQRMFKRVGCGECAACQVTEDCGACSTCLLQLPHDVASGLFCKCERRRCLRIVERSRGCGVCRGCQTQEDCGHCPICLRPPRPGLRRQWKCVQRRCLRGKHARRKGGCDSKMAARRRPGAQPLPPPPPSQSPEPTEPHPRALAPSPPAEFIYYCVDEDELQPYTNRRQNRKCGACAACLRRMDCGRCDFCCDKPKFGGSNQKRQKCRWRQCLQFAMKRLLPSVWSESEDGAGSPPPYRRRKRPSSARRHHLGPTLKPTLATRTAQPDHTQAPTKQEAGGGFVLPPPGTDLVFLREGASSPVQVPGPVAASTEALLQEAQCSGLSWVVALPQVKQEKADTQDEWTPGTAVLTSPVLVPGCPSKAVDPGLPSVKQEPPDPEEDKEENKDDSASKLAPEEEAGGAGTPVITEIFSLGGTRFRDTAVWLPRSKDLKKPGARKQ
B4: RFC1 (protein, UniProt P35251 1-1148)
chain: MDIRKFFGVIPSGKKLVSETVKKNEKTKSDEETLKAKKGIKEIKVNSSRKEDDFKQKQPSKKKRIIYDSDSESEETLQVKNAKKPPEKLPVSSKPGKISRQDPVTYISETDEEDDFMCKKAASKSKENGRSTNSHLGTSNMKKNEENTKTKNKPLSPIKLTPTSVLDYFGTGSVQRSNKKMVASKRKELSQNTDESGLNDEAIAKQLQLDEDAELERQLHEDEEFARTLAMLDEEPKTKKARKDTEAGETFSSVQANLSKAEKHKYPHKVKTAQVSDERKSYSPRKQSKYESSKESQQHSKSSADKIGEVSSPKASSKLAIMKRKEESSYKEIEPVASKRKENAIKLKGETKTPKKTKSSPAKKESVSPEDSEKKRTNYQAYRSYLNREGPKALGSKEIPKGAENCLEGLIFVITGVLESIERDEAKSLIERYGGKVTGNVSKKTNYLVMGRDSGQSKSDKAAALGTKIIDEDGLLNLIRTMPGKKSKYEIAVETEMKKESKLERTPQKNVQGKRKISPSKKESESKKSRPTSKRDSLAKTIKKETDVFWKSLDFKEQVAEETSGDSKARNLADDSSENKVENLLWVDKYKPTSLKTIIGQQGDQSCANKLLRWLRNWQKSSSEDKKHAAKFGKFSGKDDGSSFKAALLSGPPGVGKTTTASLVCQELGYSYVELNASDTRSKSSLKAIVAESLNNTSIKGFYSNGAASSVSTKHALIMDEVDGMAGNEDRGGIQELIGLIKHTKIPIICMCNDRNHPKIRSLVHYCFDLRFQRPRVEQIKGAMMSIAFKEGLKIPPPAMNEIILGANQDIRQVLHNLSMWCARSKALTYDQAKADSHRAKKDIKMGPFDVARKVFAAGEETAHMSLVDKSDLFFHDYSIAPLFVQENYIHVKPVAAGGDMKKHLMLLSRAADSICDGDLVDSQIRSKQNWSLLPAQAIYASVLPGELMRGYMTQFPTFPSWLGKHSSTGKHDRIVQDLALHMSLRTYSSKRTVNMDYLSLLRDALVQPLTSQGVDGVQDVVALMDTYYLMKEDFENIMEISSWGGKPSPFSKLDPKVKAAFTRAYNKEAHLTPYSLQAIKASRHSTSPSLDSEYNEELNEDDSQSDEKDQDAIETDAMIKKKTKSSKPSKPEKDKEPRKGKGKSSKK

No constants are given. Whether binding was seen depends on the method and setting. Binding seen in cells or lysates may run through a third protein. A yes stands for co-enrichment or nearness to the bait. Other partners may have been found.

The test addresses 3× hemagglutinin (HA)-tagged Vpr (HIV-1 NL4-3) (HIV-1 (NL4-3)) (UniProt P12520). Nature of the test: affinity purification with mass spectrometry.
For DDX20 (from UniProt Q9UHI6 1-824), the binding result is reported as “binds”.
The entry for GEMIN4 (from UniProt P57678 1-1058) is “binds”.
In the case of KIF18A (from UniProt Q8NI77 1-898), the binding entry is listed as “binds”.
Turning to MSH6 (from UniProt P52701 1-1360), the binding entry was “binds”.
Turning to SMN1 / SMN2 (from UniProt Q16637 1-294), the binding result is reported as “binds”.
For ZNF267 (from UniProt Q14586 1-743), the binding entry is listed as “binds”.
B1: the binding entry is “binds”.
The entry for B2 is “binds”.
As to B3, the binding entry was “binds”.
Turning to B4, the binding result was “binds”.
